Results as given in PubChem BioAssay AID504847 (National Center for Advancing Translational Sciences (NCATS), 2011).
Where “and” joins values, the source holds several entries; their conditions need not be identical. Equal entries are not always repeated. Hit rate of the full screen: of about 400,000 compounds, about 3,700 (0.93%) were called active. This list was built around the results that the source calls inconclusive (neither active nor inactive); the mix of calls is not that of the screen. The call rests on the fitted dose curve; in most records, active means well fitted inhibition curve with a large enough effect; inconclusive means small, poorly fitted or top-dose-only effect, or another doubt; inactive means no such curve, though single readings can be large or run the other way. Where the call is inconclusive, the potency comes from a doubtful curve fit.

By UniProt entry, the sequences of proteins in these tests, tags left out. Where a name states a change or a piece, a line headed by the entry shows the natural chain unless it says otherwise.
UniProt P11473: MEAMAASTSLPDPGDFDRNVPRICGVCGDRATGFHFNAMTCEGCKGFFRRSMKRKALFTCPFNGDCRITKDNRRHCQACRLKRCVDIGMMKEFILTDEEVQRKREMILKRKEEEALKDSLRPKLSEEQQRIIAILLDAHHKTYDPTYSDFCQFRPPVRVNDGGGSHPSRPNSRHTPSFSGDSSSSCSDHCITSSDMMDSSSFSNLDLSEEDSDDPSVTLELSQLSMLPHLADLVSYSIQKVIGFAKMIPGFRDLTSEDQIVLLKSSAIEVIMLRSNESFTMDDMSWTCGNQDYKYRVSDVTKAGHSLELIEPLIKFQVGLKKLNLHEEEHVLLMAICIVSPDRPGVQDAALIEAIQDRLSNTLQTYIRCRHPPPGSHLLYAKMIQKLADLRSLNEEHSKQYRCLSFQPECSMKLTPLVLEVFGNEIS

The molecules below were run against Vitamin D3 receptor (Homo sapiens) (UniProt P11473) (assay: Inhibitors of the vitamin D receptor (VDR): qHTS). Details: VDR-SRC2-3 peptide fluorescence polarization, 2 h; max response, negative = inhibition: hits give low values.
Text: The vitamin D receptor (VDR) is a ligand-activated transcription factor and is partially responsible for the regulation of the endocrine system. This includes the transcriptional regulation of genes involved in the production of the parathyroid hormone (PTH) and the regulation of the blood calcium level. High levels of PHT can cause hypercalcemia in the case of primary and tertiary hyperparathyroidism. The VDR-mediated gene regulation, activated by its ligand 1,25-dihydroxyvitamin D3 (1,25-(OH)2D3), is governed by the recruitment of coactivators. Our hypothesis is that small molecules, with the ability to inhibit the interaction between VDR and certain coactivators, are able to selectively modulate VDR-mediated transcription. Our long term objective is the application these VDR-coactivator inhibitors to study the role of VDR-coactivator binding for specific VDR regulated genes. Ultimately, these molecules can be developed into new treatments for hypercalcemic hyperparathyroidism. No small molecule or non-peptide inhibitors are known for the VDR-coactivator interaction.
In a collaboration between the University of Wisconsin, Milwaukee and the NIH Chemical Genomics Center (NCGC) a HTS-compatible enzymatic assay was developed. The assay uses fluorescence polarization as its read-out to measure the inhibition between VDR and coregulator peptide SRC2-3 exerted by small molecules. This assay was used to screen the NIH Molecular Libraries Small Molecule Repository (MLSMR).
NIH Chemical Genomics Center [NCGC]
NIH Molecular Libraries Probe Centers Network [MLPCN]
Assay Submitter (PI): Alexander Arnold, University of Wilwaukee
Both solutions are kept at 4 deg C and protected from light and dispensed using a Kalypsys dispenser. Then 23nl of compounds and controls are added with Kalypsys pintool. […] Plate is centrifuged at 1000 RPM for 15 seconds to remove any residual bubbles. The plate is then incubate at ambient room temperature for 2 hours.
On the % scale 0 is the no-effect control and ±100 the full control effect; potency means the concentration at half of the fitted maximal effect.

SMILES | Potency | max response, negative = inhibition
COc1cc(/C=C2\C(=O)NC(=O)N(CCc3ccc(F)cc3)C2=O)ccc1O | inconclusive: 22.4 µM [inhibitor, full curve, poor fit] | –
Cc1ccc(-n2nc(C)c3c2NC(=O)CSC3c2ccc3c(c2)OCO3)cc1 (stereo not given) | inconclusive: 44.7 µM [inhibitor, partial curve, poor fit] | –
COC(=O)C1=C(c2cccc(OCc3ccccc3)c2)C[C@@H]2CC[C@H]1N2C(=O)NCc1ccc(OC)cc1 | inconclusive: 100 µM [inhibitor, single point] | –
CC(C)(C)c1ccc(OC(=O)N2CCCCC2)cc1 | inconclusive: 70.8 µM [inhibitor, single point] | –
C=CCN1C(=O)/C(=C/c2cccs2)C(=O)NC1=S | inconclusive: 17.8 µM [inhibitor, full curve, poor fit] | –
O=C1CC(c2c(F)cccc2Cl)c2c(c3ccccc3oc2=O)O1 (stereo not given) | – | inactive: -3.2%
CC1CCCC(C)N1/N=C/c1c[nH]c2ccc(Br)cc12 (stereo not given) | inconclusive: 100 µM [inhibitor, single point] | –
C#C[C@]1(O)CCC2C3CCC4=C/C(=N/OCC(=O)NC(C)C(=O)NC(CCSC)C(=O)O)CC[C@]4(C)C3CC[C@@]21C (stereo not given in full) | inconclusive: 100 µM [inhibitor, partial curve, poor fit] | –
O=C1NC(=O)N(c2ccc(Br)cc2)C(=O)/C1=C/c1ccsc1 | active: 44.7 µM | –
CCOC(=O)N(C)C(=O)CSP(=S)(OCC)OCC | active: 50.1 µM | –
CCN(CC)c1nc(C)cc(OP(=S)(OC)OC)n1 | inconclusive: 89.1 µM [inhibitor, single point] | –
CCOP(=O)(OCC)C(=Cc1cc(C(C)(C)C)c(O)c(C(C)(C)C)c1)P(=O)(OCC)OCC | inconclusive: 50.1 µM [inhibitor, partial curve, poor fit] | –
CC(=NCCN1CCOCC1)c1c(O)n(-c2ccccc2C)c(=O)[nH]c1=O | – | inactive: -16.4%
O=C1NC(=O)N(c2ccc(F)cc2)C(=O)/C1=C/c1ccc2c(c1)CCCN2Cc1ccccc1 | inconclusive: 89.1 µM [inhibitor, partial curve, poor fit] | –
O=C(CCCN1CCC2(CC1)C(=O)N(Cc1cccc(F)c1)CN2c1ccccc1)c1ccc(F)cc1 | inconclusive: 44.7 µM [inhibitor, single point] and inconclusive: 50.1 µM [inhibitor, partial curve] | –
CCOC(=O)c1ccc(-n2c(N)c(C(=O)NCC3CCCO3)sc2=S)cc1 (stereo not given) | inconclusive: 39.8 µM [inhibitor, partial curve, poor fit] | –
CCC(C)n1c(O)c(/C=N/Nc2ccccc2)c(=O)[nH]c1=S (stereo not given) | inconclusive: 17.8 µM [inhibitor, full curve] | –
CC(=O)n1cc(C=C2C(=O)NC(=O)NC2=O)c2ccccc21 | inconclusive: 56.2 µM [inhibitor, partial curve, poor fit] | –
CC(Cc1ccccc1)NC(=O)c1ccc(N)cc1 (stereo not given) | inconclusive: 79.4 µM [inhibitor, partial curve] | –

SMILES | Potency | max response, negative = inhibition
C/C(=C(/CCOC(=O)C(C)C)SS/C(CCOC(=O)C(C)C)=C(\C)N(C=O)Cc1cnc(C)nc1N)N(C=O)Cc1cnc(C)nc1N | active: 15.8 µM | –
COc1ccccc1NS(=O)(=O)c1cc(NC(=O)c2ccc(Cl)nc2)ccc1N1CCCC1 | inconclusive: 50.1 µM [inhibitor, partial curve, poor fit] | –
Clc1ccccc1CNC1CN2CCC1CC2 (stereo not given) | inconclusive: 79.4 µM [inhibitor, single point] | –
CCC(C)N=Cc1c(O)n(-c2ccccc2)c(=O)[nH]c1=O (stereo not given) | inconclusive: 63.1 µM [inhibitor, partial curve, poor fit] | –
FC(F)(F)c1ccc2c(c1)N(CCCN1CCN(CCCl)CC1)c1ccccc1S2 | – | inactive: -1.78%
COC(=O)C1=C(C(=O)OC)SC2(S1)C(C(=O)OC)=C(C(=O)OC)Sc1c2ssc1=O | active: 2 µM | –
O=C1NC(=O)C(=Cc2cc3c(cc2[N+](=O)[O-])OCO3)C(=O)N1 | active: 39.8 µM | –
O=[N+]([O-])NC1=NCCN1Cc1ccc(Cl)nc1 | inconclusive: 89.1 µM [inhibitor, single point] | –
C[C@@H](COc1ccccc1)N(CCCl)Cc1ccccc1 | active: 25.1 µM | –
COc1ccc(N2C(=O)CS(=O)C(c3ccccc3)C2=O)cc1 (stereo not given) | active: 35.5 µM | –
COc1ccc(NC(=O)CN2C(=O)C(C)N=C(c3ccccc3F)c3cc(Cl)ccc32)c(OC)c1 (stereo not given) | – | inactive: 2.26%
CCCCOc1ccc(CN2C(=O)C(=O)c3cc(C)ccc32)cc1OC | inconclusive: 25.1 µM [inhibitor, single point] | –
CCCCCn1c(Sc2ccccc2)nc2c1c(=O)[nH]c(=O)n2C | inconclusive: 79.4 µM [inhibitor, partial curve] | –
Cc1ccccc1C(=O)NNC(=S)NC(=O)COc1ccccc1 | inconclusive: 79.4 µM [inhibitor, partial curve] | –
Cc1cc(C=C2C(=O)N(C)C(=S)N(C)C2=O)c(C)n1-c1ccncc1 | inconclusive: 44.7 µM [inhibitor, partial curve, poor fit] | –
CCN1CCN(Cc2cc(Br)cc(OC)c2O)CC1 | – | inactive: 7.81%
O=C1NC(=O)C(=Cc2ccc(SC3CCCCC3)o2)C(=O)N1 | inconclusive: 31.6 µM [inhibitor, single point] | –
COCCN1C(=O)NC(=O)/C(=C\c2ccc(Br)cc2)C1=O | inconclusive: 22.4 µM [inhibitor, single point] | –
COC(=O)C1=C(C)NC(=S)NC1c1ccc(N(CCCl)CCCl)cc1Cl (stereo not given) | inconclusive: 56.2 µM [inhibitor, single point] | –
C/C(=C/CCC(C)[C@H]1CC[C@@]2(C)C3=C(CC[C@]12C)[C@@]1(C)CCC(=O)C(C)(C)[C@@H]1CC3)C(=O)O (stereo not given in full) | inconclusive: 100 µM [inhibitor, partial curve, poor fit] | –

Sorted by molar mass (descending): part of the list above
SMILES | Potency | max response, negative = inhibition
COC(=O)C1=C(c2cccc(OCc3ccccc3)c2)C[C@@H]2CC[C@H]1N2C(=O)NCc1ccc(OC)cc1 | inconclusive: 100 µM [inhibitor, single point] | –
COc1ccccc1NS(=O)(=O)c1cc(NC(=O)c2ccc(Cl)nc2)ccc1N1CCCC1 | inconclusive: 50.1 µM [inhibitor, partial curve, poor fit] | –
FC(F)(F)c1ccc2c(c1)N(CCCN1CCN(CCCl)CC1)c1ccccc1S2 | – | inactive: -1.78%
Cc1cc(C=C2C(=O)N(C)C(=S)N(C)C2=O)c(C)n1-c1ccncc1 | inconclusive: 44.7 µM [inhibitor, partial curve, poor fit] | –
O=C1CC(c2c(F)cccc2Cl)c2c(c3ccccc3oc2=O)O1 (stereo not given) | – | inactive: -3.2%
COc1ccc(N2C(=O)CS(=O)C(c3ccccc3)C2=O)cc1 (stereo not given) | active: 35.5 µM | –
CCN(CC)c1nc(C)cc(OP(=S)(OC)OC)n1 | inconclusive: 89.1 µM [inhibitor, single point] | –
CCC(C)N=Cc1c(O)n(-c2ccccc2)c(=O)[nH]c1=O (stereo not given) | inconclusive: 63.1 µM [inhibitor, partial curve, poor fit] | –
O=[N+]([O-])NC1=NCCN1Cc1ccc(Cl)nc1 | inconclusive: 89.1 µM [inhibitor, single point] | –
